Test results from patent publication US12239737B2, “Oral rapamycin nanoparticle preparations and use” (Rapamycin Holdings, Inc., priority 2013, dated 2025).
At least one compound was matched to its structure with a doubt left.

Tested on: transgenic PDAPP mice
Assay: Alzheimer's disease mouse model: Morris water maze, cerebral blood flow, vascular and amyloid pathology
Format: in vivo

SMILES: CO[C@H]1C[C@@H]2CC[C@@H](C)[C@@](O)(O2)C(=O)C(=O)N2CCCC[C@H]2C(=O)O[C@H]([C@H](C)C[C@@H]2CC[C@@H](O)[C@H](OC)C2)CC(=O)[C@H](C)/C=C(\C)[C@@H](O)[C@@H](OC)C(=O)[C@H](C)C[C@H](C)/C=C/C=C/C=C/1C [rapamycin]
- learning deficits in Morris water maze spatial training (PDAPP mice, 16 weeks treatment): improved
- memory (PDAPP mice, in contrast to control): markedly better
- CBF in the hippocampus (chronic treatment, AD mice): restored these CBF levels such that they were comparable with non-transgenic groups
- global cerebral blood flow (CBF) (chronic treatment, AD mice): not distinguishable from non-transgenic groups
- reduced cerebral vessel density (chronic treatment, AD mice): abrogated
